Results are given in words; binding and its absence hold for the method and conditions named. Binding seen in cells or lysates may run through a third protein. Some entries that bind do so weakly or less than the wild type.
Molecular target: Rbpj (mouse (endogenous in trophoblast cells)) (UniProt P31266)
Test: co-IP; 1 mg protein from trophoblast cells lysed in mild buffer (25 mM Tris, 150 mM NaCl, 1 mM EDTA, 1% Nonidet P-40, 5% glycerol; pH 7.4); antibodies to Rbpj and Mash2; Protein A agarose beads, overnight at 4 °C; immunoblot

Amino acid sequences for entries named in this document (tags omitted).
UniProt P31266: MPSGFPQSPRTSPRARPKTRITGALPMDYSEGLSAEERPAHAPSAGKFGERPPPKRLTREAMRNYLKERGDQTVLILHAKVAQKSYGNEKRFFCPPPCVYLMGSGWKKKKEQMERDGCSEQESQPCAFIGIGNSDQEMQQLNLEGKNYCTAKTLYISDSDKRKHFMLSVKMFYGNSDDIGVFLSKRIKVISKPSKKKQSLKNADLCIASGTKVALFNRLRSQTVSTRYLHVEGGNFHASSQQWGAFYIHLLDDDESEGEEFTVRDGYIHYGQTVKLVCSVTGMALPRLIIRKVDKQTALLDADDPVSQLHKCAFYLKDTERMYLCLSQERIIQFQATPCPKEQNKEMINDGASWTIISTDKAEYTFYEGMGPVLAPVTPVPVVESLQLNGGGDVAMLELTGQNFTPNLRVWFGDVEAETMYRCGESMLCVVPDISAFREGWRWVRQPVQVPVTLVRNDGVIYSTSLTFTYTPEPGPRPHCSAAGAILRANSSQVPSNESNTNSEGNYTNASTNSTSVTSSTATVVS
UniProt O35885: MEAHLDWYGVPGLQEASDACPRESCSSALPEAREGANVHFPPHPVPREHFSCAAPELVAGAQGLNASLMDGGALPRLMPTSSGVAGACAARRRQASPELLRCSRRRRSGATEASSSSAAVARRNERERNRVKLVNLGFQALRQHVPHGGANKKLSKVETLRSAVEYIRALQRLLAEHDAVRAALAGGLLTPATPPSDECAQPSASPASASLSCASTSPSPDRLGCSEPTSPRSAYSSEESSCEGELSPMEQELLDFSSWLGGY

achaete-scute complex homolog-like 2 (from UniProt O35885 1-263)
binding: binds

— paper PMC6549187
